Reference: paper PMC3271067
No constants are given. Whether binding was seen depends on the method and setting. Binding seen in cells or lysates may run through a third protein. Some binding calls cover weakened binding; strength is not graded here. Where a sequence is shown, tags or fusion partners need not be part of it. Each block holds one binder with its values, some of them ahead of it.

What was measured:
[1] = target: T1, Kar3-3HA (S. cerevisiae) (UniProt P17119); experiment: condition: only with CIK1-CC overexpressed (galactose for 3 hrs); co-IP; as a1 (IP with anti-HA antibody), but cells carry the PGALCIK1-CC plasmid and overexpress CIK1-CC (galactose for 3 hrs)
T1 sequence: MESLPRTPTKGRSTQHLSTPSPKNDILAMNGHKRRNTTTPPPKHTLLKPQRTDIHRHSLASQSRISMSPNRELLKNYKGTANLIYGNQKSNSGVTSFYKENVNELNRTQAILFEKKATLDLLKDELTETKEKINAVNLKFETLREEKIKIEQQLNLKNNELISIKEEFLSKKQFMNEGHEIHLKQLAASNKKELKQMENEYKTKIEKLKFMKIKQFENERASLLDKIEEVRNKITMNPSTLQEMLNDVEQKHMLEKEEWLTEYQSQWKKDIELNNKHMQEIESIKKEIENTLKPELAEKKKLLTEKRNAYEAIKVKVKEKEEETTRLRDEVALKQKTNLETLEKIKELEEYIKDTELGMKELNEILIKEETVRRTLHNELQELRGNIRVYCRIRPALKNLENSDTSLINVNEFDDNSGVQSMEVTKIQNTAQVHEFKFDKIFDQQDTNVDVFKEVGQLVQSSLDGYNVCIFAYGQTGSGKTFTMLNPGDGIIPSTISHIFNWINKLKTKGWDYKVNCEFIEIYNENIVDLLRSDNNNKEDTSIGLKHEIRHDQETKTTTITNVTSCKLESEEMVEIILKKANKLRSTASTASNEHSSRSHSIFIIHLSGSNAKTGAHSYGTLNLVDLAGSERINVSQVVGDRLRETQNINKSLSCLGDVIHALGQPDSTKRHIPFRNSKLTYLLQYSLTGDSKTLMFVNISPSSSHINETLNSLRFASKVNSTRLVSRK

[2] = target: T1, Kar3-3HA (S. cerevisiae); experiment: co-IP; yeast cell extracts in RIPA buffer (25 mM Tris pH 7.5, 10 mM EDTA, 150 mM NaCl, 0.05% Tween-20), IP with anti-HA antibody overnight at 4°C, protein-A agarose, blots with anti-HA and anti-myc; mid-log cells or cells with the empty vector in galactose for 3 hrs

binding [1]: no binding
binding [2]: binds
B1: Cik1-13myc (protein, UniProt Q01649 1-594)
chain: MNNSKIPKLSFHSDPNNVTRDFPKTKRQKVQKREMDMILTPNNNKLNILHSSGSGIRRCYTDDTSATYTKKLTFGGDPKIIERVKNNERKVRKDIDSLLNAISEIEKESVRIHARELPAITLELDAKVKACRELQNEIDGLSTEMDLKDNQCDLQRKNVELSSKNIVSMHAVKVQEFENDLEEELSNAKREWTYKLMEVENLKPDERLTDEMRQLKTEFEEVNRKLFILQNENENECKNYKKELDKKFEIFKKVKNDARIELDGEQERLSKVLKDLQDTHGELKENIKTCRDEFNDFEKRIGEAEVNFHSMELAVVPLKKKLASTSQALTQVQEEKKQVEGEANNWKKKYVNELEKVQQELYTRQNLATSIEEIKGYTRCFAYANERQMPDEFHINYVDRCICENSGEKRVQVFDRVVLEEIHKDHKRLYNECIPFLEKYISKLINCSIIVVSQQPTAPMKKTLLKQLIEQYGENYKMTLNILHLDGSIKHSDVGLDNPTEIRDLSQDEECMNILTLDTKLGKDEESHSMNIYIGSMSTVQLNRELDDAPSVLSHILTKTKQCFVFKINAGENIEKALALAGKLKRTITLPQLD

binding [2]: binds
B2: Vik1-13myc (protein, UniProt Q12045 1-647)
chain: MASQQNKHAFLSKNRIFHNPDNVSSSKSRNLMDITNTTNTMNGSRPSSMKSSLALPPVKDSFPSVSRSASLNINMSKIKDLKDRQDKIRFQRHTLRTQLIECEREIKTIKFRDLNKSRFELYKKKSKQAKYLKQVRDLTQNLNSKDGERADLIKKNKSALATLQAELDQNLILKRQESQELYNNKLIFWENELQIMENVEPDHEITEEISQLKKTLQELNINWANLQKQNLERQVNHESQLRKDFIAFKEAKLKSMENLTNKHRELLDQIATLQSESEKLHKEIMDIDRQAEYSEQNISEINENIKQLELANNPLISKSLQNSQDLEHLQNQMENLKEMASKQEKFYNDTYNTVEKELLRSRRLENSIIEQKGTMRCYAYVMEQNLPENLLFDYENGVITQGLSEHVYKFNRVIPHLKVSEDKFFTQEYSVYHDMCLNQKKNFNLISLSTTPHGSLRESLIKFLAEKDTIYQKQYVITLQFVFLSDDEFSQDMLLDYSHNDKDSIKLKFEKHSISLDSKLVIIENGLEDLPLNFSCDEHPNLPHSGMGIIKVQFFPRDSKSDGNNDPVPVDFYFIELNNLKSIEQFDKSIFKKESCETPIALVLKKLISDTKSFFLLNLNDSKNVNKLLTISEEVQTQLCKRKKKLT
